The assay addresses Fc-CD95L (UniProt P48023). Put plainly: pull-down; native CD95 DISC: control (vector) or c-FLIPS expressing HaCaT cells, 250 U/ml Fc-CD95L 30 min 37 C, lysis in 30 mM Tris-HCl pH 7.5, 150 mM NaCl, 10% glycerol, 1% Triton X-100; ligand affinity purification, western blotting; only the target purified.

The chains behind the UniProt entries cited, without tags or fusion partners. Residues count along the entry.
UniProt P48023, residues 130-281: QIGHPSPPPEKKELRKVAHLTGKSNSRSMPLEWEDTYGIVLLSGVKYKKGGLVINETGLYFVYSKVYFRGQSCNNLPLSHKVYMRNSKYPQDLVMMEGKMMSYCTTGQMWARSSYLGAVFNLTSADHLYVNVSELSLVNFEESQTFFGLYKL
UniProt Q13158: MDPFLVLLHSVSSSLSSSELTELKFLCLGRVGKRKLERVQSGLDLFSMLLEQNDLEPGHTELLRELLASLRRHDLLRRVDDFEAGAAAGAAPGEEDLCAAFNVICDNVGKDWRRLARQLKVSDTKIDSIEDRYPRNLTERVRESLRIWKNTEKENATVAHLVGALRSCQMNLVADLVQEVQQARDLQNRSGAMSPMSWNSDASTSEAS

These are yes or no findings as the source states them, for the method shown. In cells and extracts the contact can be indirect. Some entries that bind do so weakly or less than the wild type.

Regarding “endogenous FADD (from UniProt Q13158 1-208)”, the binding result is “binds”.

B1: endogenous caspase-8 (natural protein, human (endogenous in BJAB and HaCaT), UniProt Q14790 1-479, looked up)
chain: MDFSRNLYDIGEQLDSEDLASLKFLSLDYIPQRKQEPIKDALMLFQRLQEKRMLEESNLSFLKELLFRINRLDLLITYLNTRKEEMERELQTPGRAQISAYRVMLYQISEEVSRSELRSFKFLLQEEISKCKLDDDMNLLDIFIEMEKRVILGEGKLDILKRVCAQINKSLLKIINDYEEFSKERSSSLEGSPDEFSNGEELCGVMTISDSPREQDSESQTLDKVYQMKSKPRGYCLIINNHNFAKAREKVPKLHSIRDRNGTHLDAGALTTTFEELHFEIKPHDDCTVEQIYEILKIYQLMDHSNMDCFICCILSHGDKGIIYGTDGQEAPIYELTSQFTGLKCPSLAGKPKVFFIQACQGDNYQKGIPVETDSEEQPYLEMDLSSPQTRYIPDEADFLLGMATVNNCVSYRNPAEGTWYIQSLCQSLRERCPRGDDILTILTEVNYEVSNKDDKKNMGKQMPQPTFTLRKKLVFPSD
notes: caspase-8, endogenous; procaspase-8 and p43/41 cleavage fragments detected; also called procaspase-8; p43/41 cleavage fragments; source: endogenous, BJAB and HaCaT lysates
B1: the binding entry is listed as “binds”.
